Measured values reported in article PMC6825134.
Results are given in words; binding and its absence hold for the method and conditions named. In cells and extracts the contact can be indirect. Some entries that bind do so weakly or less than the wild type.

The chains behind the UniProt entries cited, without tags or fusion partners.
UniProt Q9Y5W3: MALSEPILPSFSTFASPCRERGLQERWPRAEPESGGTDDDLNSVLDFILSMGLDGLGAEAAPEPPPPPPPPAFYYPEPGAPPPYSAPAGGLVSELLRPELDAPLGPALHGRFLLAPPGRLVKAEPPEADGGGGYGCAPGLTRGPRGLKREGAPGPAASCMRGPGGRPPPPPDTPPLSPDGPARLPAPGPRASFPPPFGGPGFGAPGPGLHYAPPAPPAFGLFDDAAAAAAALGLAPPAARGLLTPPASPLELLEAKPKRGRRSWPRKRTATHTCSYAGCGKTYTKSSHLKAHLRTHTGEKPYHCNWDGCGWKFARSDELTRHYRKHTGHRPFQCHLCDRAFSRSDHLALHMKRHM

Molecular target: Krüppel-like factor 2 (KLF2) (human (endogenous in HUVEC)) (UniProt Q9Y5W3)
Assay: proximity ligation; confluent HUVEC, fixed with 4% paraformaldehyde, permeabilized with 0.5% Triton, blocked with 3% BSA; anti-ERG (mouse) and anti-KLF2 (rabbit) antibodies, Duolink In Situ Orange Kit Mouse/Rabbit; cells static or under low (5 dynes per cm^2) or high (20 dynes per cm^2) shear stress for 24 h

binding: binds
B1: ETS-related gene (ERG) transcription factor (protein, UniProt P11308 1-479)
chain: MASTIKEALSVVSEDQSLFECAYGTPHLAKTEMTASSSSDYGQTSKMSPRVPQQDWLSQPPARVTIKMECNPSQVNGSRNSPDECSVAKGGKMVGSPDTVGMNYGSYMEEKHMPPPNMTTNERRVIVPADPTLWSTDHVRQWLEWAVKEYGLPDVNILLFQNIDGKELCKMTKDDFQRLTPSYNADILLSHLHYLRETPLPHLTSDDVDKALQNSPRLMHARNTGGAAFIFPNTSVYPEATQRITTRPDLPYEPPRRSAWTGHGHPTPQSKAAQPSPSTVPKTEDQRPQLDPYQILGPTSSRLANPGSGQIQLWQFLLELLSDSSNSSCITWEGTNGEFKMTDPDEVARRWGERKSKPNMNYDKLSRALRYYYDKNIMTKVHGKRYAYKFDFHGIAQALQPHPPESSLYKYPSDLPYMGSYHAHPQKMNFVAPHPPALPVTSSSFFAAPNPYWNSPTGGIYPNTRLPTSHMPSHLGTYY
